# Measurements: PubChem BioAssay AID2685 (National Center for Advancing Translational Sciences (NCATS), 2010)
# Among all 320,000 compounds or so, about 2,100 (0.66%) were called active. Inconclusive results, whose numbers are uncertain, are shown with a selection of clear calls. The call rests on the fitted dose curve; in most records, active means well fitted inhibition curve with a large enough effect in the signal ratio, with a control signal flat (not every such curve was filed as active); inconclusive means small, poorly fitted or top-dose-only effect, or effect the other way, or a change in a side signal; inactive means flat fitted curve, though single readings scatter; the % refers to the signal ratio. Potencies beside an inconclusive call are fits to weak or partial responses and may not hold up.
# Assay: qHTS Assay for Lipid Storage Modulators in Drosophila S3 Cells
# Settings: BODIPY lipid droplet fluorescence, 18-24 h, cells fed with added oleic acid; lipid storage change, negative = inhibition: at 46.1 µM (top of the series) unless noted
# In short: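 Drosophila S3 cells got compounds at several concentrations plus oleic acid (400 uM solution). Laser-scanning cytometry with 488 nm excitation read lipid droplets at 500-530 nm and cells at 575-640 nm. Percent activity was relative to 20 uM Triacsin C.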
# On the % scale 0 is the no-effect control and ±100 the full control effect; potency means the concentration at half of the fitted maximal effect.
SMILES,Potency,"lipid storage change, negative = inhibition"
Cc1cc(C)nc(SCc2nnc(SCC(=O)NCc3ccco3)n2-c2ccccc2)n1,"inconclusive: 18.4 µM [activator, single point]",–
CN1CCN(c2nc(-c3cccnc3)nc3ccccc23)CC1,"inconclusive: 6.51 µM [activator, single point]",–
CCOC(=O)C1CCCN(C(=O)COc2ccccc2F)C1 (configuration not stated),–,inconclusive: 75.8%
O=C1/C(=C/c2ccco2)SC(=S)N1C1CCS(=O)(=O)C1 (configuration not stated),"inconclusive: 6.51 µM [rising, partial curve, poor fit]",–
C[C@]12CC[C@@H]3c4ccc(O)cc4CC[C@H]3[C@@H]1CC[C@@H]2OC(=O)CCC(=O)O,"inconclusive: 29.1 µM [falling, single point]",–
COc1ccc(NC(=O)CN(C)C(C)C(=O)N2CCCCC2)cc1 (configuration not stated),–,inconclusive: -140%
CCOC(=O)C(/C(C)=N/NC(=O)C1CC1c1ccccc1)C(C)C (configuration not stated),–,inconclusive: 26.8%
Cc1csc(=O)n1CCC(=O)OCC(=O)Nc1ncc(Cl)cc1Cl,–,inconclusive: 16.3%
O=C(Nc1ccc(F)cc1)c1ccc(CSc2ccccc2)o1,–,inconclusive: 29.2%
C=CCNS(=O)(=O)c1ccc(OCC(=O)OC)cc1,–,inconclusive: -20.6%
N#Cc1cc2cc3c(cc2nc1SCC(=O)N1CCOCC1)OCCO3,–,inconclusive: -68.2%
CCc1ccccc1NC(=O)CCCN1C(=O)C2CC=CCC2C1=O (configuration not stated),–,inconclusive: -0.379%
COc1ccc(OC)c(CN2CCN(C(=O)c3ccc(F)cc3)CC2)c1,–,inconclusive: 35.2%
COC(=O)c1cn(Nc2ncc(C(F)(F)F)cc2Cl)c(=O)c2ccccc12,–,inconclusive: 84.4%
CCCCN1C(=O)C(=O)N(CC(=O)Nc2cc(S(=O)(=O)N(C)C)ccc2C)C1=O,–,inconclusive
O=C(Nn1cnc2ccccc2c1=O)c1c(F)cccc1F,"inconclusive: 0.58 µM [activator, single point]",–
O=C1Nc2ccccc2C12OCCS2 (configuration not stated),–,inconclusive: 1.13%
Cc1cc(-c2nc3ccccc3o2)c2ccccc2n1,"inconclusive: 29.1 µM [rising, single point]",–
O=C(COc1ccccc1)Nc1ccc2oc(=O)ccc2c1,–,inconclusive: -12.6%
Cc1[nH]c2ccccc2c1C(=O)NS(=O)(=O)Nc1ccccc1,"inconclusive: 6.51 µM [rising, single point]",–
Cc1csc(=NC(=O)c2ccccc2)n1Cc1ccco1,"inconclusive: 7.31 µM [activator, partial curve]",–
O=C(C(=O)N1CCc2ccccc2C1)c1c[nH]c2ccccc12,–,inconclusive: 145%
CCn1c(NC(=O)c2ccco2)c(-c2ccccc2Cl)c(=O)c2ccccc21,–,inconclusive: -12.8%
COc1ccc(C(=O)NCCNc2nc3c(C)cccc3cc2C#N)cc1OC,–,inconclusive: -74.9%
CCOC(=O)C1=C(N)n2c(s/c(=C/c3ccco3)c2=O)=C(C(=O)OC)C1c1ccco1 (configuration not stated),"inconclusive: 11.6 µM [activator, partial curve]",–
Cc1ccc(CCN2CCN=C2Nc2ccccc2)cc1,"inconclusive: 0.82 µM [activator, full curve, poor fit]",–

# A run of entries of the results above, as a working copy:
SMILES,Potency,"lipid storage change, negative = inhibition"
O=C(C(=O)N1CCc2ccccc2C1)c1c[nH]c2ccccc12,–,inconclusive: 145%
CCn1c(NC(=O)c2ccco2)c(-c2ccccc2Cl)c(=O)c2ccccc21,–,inconclusive: -12.8%
COc1ccc(C(=O)NCCNc2nc3c(C)cccc3cc2C#N)cc1OC,–,inconclusive: -74.9%

# Remaining list, next part.

SMILES,Potency,"lipid storage change, negative = inhibition"
CC(C)(C)NC(=O)C(c1ccc(Cl)cc1)N(CCO)C(=O)c1snc(C(N)=O)c1N (configuration not stated),"inconclusive: 18.4 µM [activator, partial curve]",–
O=C(c1cc(-c2ccc(Cl)cc2)n[nH]1)N1CCc2ccccc2C1,–,inconclusive: -35.2%
COc1ccc([C@@H]2CC(=O)c3c(O)cc(O[C@@H]4O[C@H](CO[C@@H]5O[C@@H](C)[C@H](O)[C@@H](O)[C@H]5O)[C@@H](O)[C@H](O)[C@H]4O)cc3O2)cc1O,–,inconclusive: 18.5%
CCSc1nnc(-c2ccccc2SC)o1,–,inconclusive: -1.96%
NC(=O)c1ccc(NC(=O)COC(=O)c2ccc(Br)o2)cc1,–,inconclusive: -3.54%
CCOC(=O)CN(C(=O)COc1nc(-c2ccccc2)cc(C)c1C#N)c1ccc(F)cc1,–,inconclusive: 8.92%
Cc1c(O)ccc(/C(Cc2ccc3ccccc3n2)=N\O)c1O,–,inconclusive: -27.5%
COc1ccccc1OC(C)C(=O)Nc1ccc(S(=O)(=O)N2CCN(C)CC2)cc1 (configuration not stated),"inconclusive: 0.0731 µM [falling, single point]",–
CCN(CC)C(=O)OCc1c(-c2ccccc2)ncc2ccccc12,–,inconclusive: 13.9%
COc1ccc(NC(=O)C(c2ccccc2)N2CCN(c3ccccn3)CC2)cc1Cl (configuration not stated),–,inconclusive: 14.2%
O=C(Nc1cccc2ncccc12)c1ccc([N+](=O)[O-])o1,active: 16.4 µM,–
Cc1cc(O)ccc1Nc1nc(-c2cccnc2)cs1,"inconclusive: 1.3 µM [activator, full curve, poor fit]",–
COc1ccccc1NC(=O)CCN1C(=O)c2ccccc2S1(=O)=O,–,inconclusive: 9.3%
COc1ccc(N(CC(=O)Nc2nc3ccc(C)cc3s2)S(=O)(=O)c2c(C)nn(C)c2C)cc1,"inconclusive: 32.6 µM [activator, single point]",–
CCCCNS(=O)(=O)c1cc2c3c(c1)CCN3C(=O)CC2,"inconclusive: 29.1 µM [falling, single point]",–
COc1cc(OC)nc(Oc2cc(/C=N/O)ccc2OC)n1,–,inconclusive: 16.7%
Cc1nc(C(=O)NCc2ccccc2)sc1C1(C)CC(c2cccnc2)=NO1 (configuration not stated),–,inconclusive: 15.5%
CCOC(=O)[C@H]1[C@H]2COc3ccc(OC)cc3[C@@H]2N2C(=O)c3ccccc3NC(=O)[C@@]12C,–,inconclusive: 11.1%
COc1ccc(OCC(=O)Nc2cc3oc4ccccc4c3cc2OC)cc1,–,inconclusive: 6.76%
CSc1nnc(C)c(/C=C/Nc2ccc(C)cc2)n1,–,inconclusive: -52%
C/C(=N\Nc1nc2ccccc2[nH]1)c1ccc2c(c1)OCO2,"inconclusive: 25.9 µM [falling, single point]",–
O=C(c1ccc(Cl)cc1)c1oc2ccccc2c1CS(=O)(=O)c1ccccc1,–,inconclusive: 23.3%
CC1(C)[N+]([O-])=C2C(=[N+]([O-])C1(C)C)c1ccccc1/C2=N\O,"inconclusive: 1.46 µM [activator, partial curve]",–
COc1ccc(OCC(=O)Nc2nonc2NC(=O)COc2ccc(OC)cc2)cc1,–,inconclusive: -37.9% [cytotoxic]
COc1cccc(CNC(=O)c2cc3c(cc2Cl)N2CCCCCC2=NS3(=O)=O)c1,–,inconclusive
COc1ccccc1NC(=O)COC(=O)c1ccc(S(=O)(=O)NCc2ccco2)cc1,–,inconclusive: 20.2%

# Part of the list above in a different format.
SMILES	Potency	lipid storage change, negative = inhibition
COc1ccc(NC(=O)C(c2ccccc2)N2CCN(c3ccccn3)CC2)cc1Cl (configuration not stated)	–	inconclusive: 14.2%
COc1cccc(CNC(=O)c2cc3c(cc2Cl)N2CCCCCC2=NS3(=O)=O)c1	–	inconclusive
COc1ccccc1NC(=O)COC(=O)c1ccc(S(=O)(=O)NCc2ccco2)cc1	–	inconclusive: 20.2%

# (next part)

SMILES,Potency,"lipid storage change, negative = inhibition"
COc1cccc2cc(C(=O)N3CCCCCCC3)c(=O)oc12,–,inconclusive: -42.6%
O=C(C1CCN(Cc2cc(Cl)ccc2O)CC1)N1CCN(Cc2ccccc2)CC1,–,inconclusive: 3.06%
CCOC(=O)NC1(NC2CCCCC2)Oc2ccccc2O1,–,inconclusive: 9.25%
Cc1c(C(=O)C(=O)NCc2cccs2)c2ccccc2n1C,–,inconclusive: 13.8%
O=C(NNC(=O)c1ccc[nH]1)Nc1cc(Cl)cc(Cl)c1,–,inconclusive: 20.3%
O=C(Nc1cc(S(=O)(=O)N2CCOCC2)ccc1Cl)c1ccc(=O)[nH]c1,–,inconclusive
CCOc1cccc(/C=C/C(=O)O)c1,–,inconclusive: 13.5%
CC(=O)Nc1c2c3c(cccc3n(C)c1=O)C(=O)c1ccccc1-2,–,inconclusive: 7.24%
CC(=O)N(c1ccccc1)C1SC(=O)N(c2ccccc2)C1=O (configuration not stated),–,inconclusive: 127%
CC(C)(C)C1CCc2c(sc(NC(=O)c3ccncc3)c2C(N)=O)C1 (configuration not stated),–,inconclusive: -63.6%
Cc1cc(NC(=O)CSc2nnnn2-c2cc(Cl)ccc2C)no1,–,inconclusive: -69.6%
CCc1c(C)sc(NC(=O)c2cc(-c3ccc(O)cc3)on2)c1C#N,–,inconclusive: -13.2%
CCOC(=O)C1CCN(CC(=O)Nc2c(C(=O)OC)[nH]c3ccccc23)CC1,–,inconclusive: 0.0775% [at 9.22 µM]
Cc1cc(C)cc(NC(=O)CN2CCC(C(=O)c3ccccc3)CC2)c1,"inconclusive: 4.61 µM [activator, full curve, poor fit]",–
c1ccc2c(CN3CCSCC3)cccc2c1,"inconclusive: 18.4 µM [activator, single point]",–
CCOC(=O)[C@H]1[C@H]2COc3ccc(C)cc3[C@@H]2N2C(=O)CN(Cc3ccccc3)C(=O)[C@@]12C,–,inconclusive: 21.9%
O=C1/C(=C\c2ccccc2)SC(=S)N1CCC(=O)N1CCCCC1CCO (configuration not stated),"inconclusive: 23.1 µM [falling, single point]",–
Cc1cc(O)c(Sc2ncn[nH]2)cc1NS(=O)(=O)c1ccc(Cl)cc1,–,inconclusive: -2.46%
Cn1c(NC(=O)C[n+]2cc(-c3ccc(F)cc3)n3c2CCC3)cc(=O)n(C)c1=O,–,inconclusive: 13.4%
O=C(N/N=C/C1C(c2ccccc2)C1(Cl)Cl)c1cccc(Br)c1 (configuration not stated),–,inconclusive: 467%
COc1ccc(OC)c(NC(=O)COC(=O)c2cc3c(s2)CCC3)c1,"inconclusive: 0.651 µM [rising, single point]",–
COc1ccc2cnn(CCOc3cc(C)ccc3C(C)C)c(=O)c2c1OC,–,inconclusive: -0.116%
COCCNC(=O)c1cc2sccc2n1C,"inconclusive: 29.1 µM [activator, single point]",–
CN(C)Cc1ccc(CNC(=O)COc2ccc3ccccc3c2)cc1,–,inconclusive: 8.51%
CC1CCCC(C)N1C(=O)Cn1nnc(-c2ccccc2)n1 (configuration not stated),"inconclusive: 6.51 µM [activator, single point]",–
